{
  "source": "the supplement of paper PMC4635364",
  "key": {"[1]": {"test_system": "ReNCell VM", "assay": "neuronal differentiation score (DCX+ cell fraction vs untreated, manual image score) (score (-3 to 3)); higher = more neuronal differentiation", "settings": "2 uM, 2 weeks"}, "[2]": {"test_system": "ReNCell VM", "assay": "dopaminergic neuron differentiation score (TH+ cell fraction vs untreated, manual image score) (score (0 to 3)); higher = more TH+ dopaminergic neuron differentiation", "settings": "2 uM, 4 weeks, BDNF 10 ng/ml + GDNF 10 ng/ml"}},
  "note": "Counter-ions that a name gives are not always drawn. The list shows a part of the results. Repeats in this data set agree poorly, so a single value says little.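 Cells: ReNCell VM human fetal ventral-midbrain neural progenitors, differentiated mitogen-free. Blinded raters compared doublecortin-stained (early neurons) or tyrosine hydroxylase-stained (dopaminergic neurons) images with untreated wells, where 0 means no change. After repeats and both raters were averaged, compounds scoring 2 or above became hits for retesting.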",
  "data": [
    {"smiles": "CC(Oc1c(Cl)cccc1Cl)C1=NCCN1", "note": "(stereo not drawn) [Lofexidine]", "values": [
      {"measurement": "neuronal differentiation score", "setting": "[1]; library: Prestwick", "result": "inactive: 0"},
      {"measurement": "dopaminergic neuron differentiation score", "setting": "[2]; library: Prestwick", "result": "inactive: 0"}
    ]},
    {"smiles": "O=C(O)C1=CCCN(CCON=C(c2ccccc2)c2ccccc2)C1", "values": [
      {"measurement": "neuronal differentiation score", "setting": "[1]; library: Tocriscreen", "result": "inactive: 0"},
      {"measurement": "dopaminergic neuron differentiation score", "setting": "[2]; library: Tocriscreen", "result": "inactive: 0"}
    ]},
    {"smiles": "NC(C(=O)O)C(O)C(=O)O", "note": "(racemic) [DL-threo-beta-hydroxyaspartic acid]", "values": [
      {"measurement": "neuronal differentiation score", "setting": "[1]; library: LOPAC", "result": "inactive: 0"},
      {"measurement": "dopaminergic neuron differentiation score", "setting": "[2]; library: LOPAC", "result": "inactive: 0"}
    ]},
    {"smiles": "CCOCCn1c(N2CCCN(C)CC2)nc2ccccc21", "note": "[Emedastine]", "values": [
      {"measurement": "neuronal differentiation score", "setting": "[1]; library: Prestwick", "result": "inactive: 0"},
      {"measurement": "dopaminergic neuron differentiation score", "setting": "[2]; library: Prestwick", "result": "inactive: 0"}
    ]},
    {"smiles": "CCCCC(CC)COC(=O)c1ccccc1O", "note": "(stereo not drawn)", "values": [
      {"measurement": "neuronal differentiation score", "setting": "[1]; library: Spectrum", "result": "inactive: 0"},
      {"measurement": "dopaminergic neuron differentiation score", "setting": "[2]; library: Spectrum", "result": "inactive: 0"}
    ]},
    {"smiles": "Cc1ccccc1C(=O)c1ccc(Nc2ccc(Br)cc2N)cc1Cl", "values": [
      {"measurement": "neuronal differentiation score", "setting": "[1]; library: Tocriscreen", "result": "inactive: 0"},
      {"measurement": "dopaminergic neuron differentiation score", "setting": "[2]; library: Tocriscreen", "result": "inactive: 0"}
    ]},
    {"smiles": "O=P(O)(O)C(Cl)(Cl)P(=O)(O)O", "note": "[Clodronic acid]", "values": [
      {"measurement": "neuronal differentiation score", "setting": "[1]; library: LOPAC", "result": "inactive: 0"},
      {"measurement": "dopaminergic neuron differentiation score", "setting": "[2]; library: LOPAC", "result": "inactive: 0"}
    ]},
    {"smiles": "COc1ccc(C(=O)c2coc3ccc(O)cc23)cc1", "note": "[(5-hydroxy-benzofuran-3-yl)-(4-methoxy-phenyl)-methanone]", "values": [
      {"measurement": "neuronal differentiation score", "setting": "[1]; library: Natural", "result": "inactive: 0"},
      {"measurement": "dopaminergic neuron differentiation score", "setting": "[2]; library: Natural", "result": "inactive: 0"}
    ]},
    {"smiles": "CN(C)CCOC(C)(c1ccccc1)c1ccccn1", "note": "(stereo not drawn)", "values": [
      {"measurement": "neuronal differentiation score", "setting": "[1]; library: Spectrum", "result": "inactive: 0"},
      {"measurement": "dopaminergic neuron differentiation score", "setting": "[2]; library: Spectrum", "result": "inactive: 0"}
    ]},
    {"smiles": "COc1c(C=O)c(=O)[nH]c2c(OC)cccc12", "note": "[2-hydroxy-4,8-dimethoxy-quinoline-3-carbaldehyde]", "values": [
      {"measurement": "neuronal differentiation score", "setting": "[1]; library: Natural", "result": "inactive: 0"},
      {"measurement": "dopaminergic neuron differentiation score", "setting": "[2]; library: Natural", "result": "inactive: 0"}
    ]},
    {"smiles": "CC(=O)O[C@H]1C[C@@H](OC(C)=O)C(C)(C)[C@@H]2C[C@@H](OC(C)=O)[C@@]3(C)C4=CC(=O)O[C@@H](c5ccoc5)[C@]4(C)CC[C@@H]3[C@@]12C", "values": [
      {"measurement": "neuronal differentiation score", "setting": "[1]; library: Spectrum", "result": "inactive: 0"},
      {"measurement": "dopaminergic neuron differentiation score", "setting": "[2]; library: Spectrum", "result": "inactive: 0"}
    ]},
    {"smiles": "S=c1[nH]cnc2nc[nH]c12", "values": [
      {"measurement": "neuronal differentiation score", "setting": "[1]; library: Spectrum", "result": "inactive: 0"},
      {"measurement": "dopaminergic neuron differentiation score", "setting": "[2]; library: Spectrum", "result": "inactive: 0"}
    ]},
    {"smiles": "CNC(=O)c1cc2c(cn1)[nH]c1ccccc12", "values": [
      {"measurement": "neuronal differentiation score", "setting": "[1]; library: Tocriscreen", "result": "inactive: 0"},
      {"measurement": "dopaminergic neuron differentiation score", "setting": "[2]; library: Tocriscreen", "result": "inactive: 0"}
    ]},
    {"smiles": "C[C@@](Cc1ccc(O)c(O)c1)(NN)C(=O)O", "note": "[Carbidopa]", "values": [
      {"measurement": "neuronal differentiation score", "setting": "[1]; library: Prestwick", "result": "inactive: 0"},
      {"measurement": "dopaminergic neuron differentiation score", "setting": "[2]; library: Prestwick", "result": "inactive: 0"}
    ]},
    {"smiles": "N[C@@H](Cc1ccc(O)c(O)c1)C(=O)O", "note": "[Levodopa]", "values": [
      {"measurement": "neuronal differentiation score", "setting": "[1]; library: Prestwick", "result": "inactive: 0"},
      {"measurement": "dopaminergic neuron differentiation score", "setting": "[2]; library: Prestwick", "result": "inactive: 0"}
    ]},
    {"smiles": "O=C1c2ccccc2C(Cc2ccnc(F)c2)(Cc2ccnc(F)c2)c2ccccc21", "values": [
      {"measurement": "neuronal differentiation score", "setting": "[1]; library: Tocriscreen", "result": "inactive: 0"},
      {"measurement": "dopaminergic neuron differentiation score", "setting": "[2]; library: Tocriscreen", "result": "inactive: 0"}
    ]},
    {"smiles": "O=C1NC(=O)C(c2ccccc2)(c2ccccc2)N1", "note": "[5,5-Diphenylhydantoin]", "values": [
      {"measurement": "neuronal differentiation score", "setting": "[1]; library: LOPAC", "result": "inactive: 0"},
      {"measurement": "dopaminergic neuron differentiation score", "setting": "[2]; library: LOPAC", "result": "inactive: 0"}
    ]},
    {"smiles": "CC(COc1ccccc1)NC(C)C(O)c1ccc(O)cc1", "note": "(stereo not drawn)", "values": [
      {"measurement": "neuronal differentiation score", "setting": "[1]; library: Spectrum", "result": "inactive: 0"},
      {"measurement": "dopaminergic neuron differentiation score", "setting": "[2]; library: Spectrum", "result": "inactive: 0"}
    ]},
    {"smiles": "CC(=O)[C@H]1CC[C@H]2[C@@H]3C[C@H](C)C4=CC(=O)CC[C@]4(C)[C@H]3[C@@H](O)C[C@]12C", "values": [
      {"measurement": "neuronal differentiation score", "setting": "[1]; library: Spectrum", "result": "inactive: 0"},
      {"measurement": "dopaminergic neuron differentiation score", "setting": "[2]; library: Spectrum", "result": "inactive: 0"}
    ]},
    {"smiles": "O=C1OC(=O)[C@H]2[C@@H]1[C@@H]1CC[C@H]2O1", "values": [
      {"measurement": "neuronal differentiation score", "setting": "[1]; library: Spectrum", "result": "inactive: 0"},
      {"measurement": "dopaminergic neuron differentiation score", "setting": "[2]; library: Spectrum", "result": "inactive: 0"}
    ]},
    {"smiles": "CC(C)NC[C@H](O)COc1ccc(CC(N)=O)cc1", "note": "[S(-)-Atenolol]", "values": [
      {"measurement": "neuronal differentiation score", "setting": "[1]; library: LOPAC", "result": "inactive: 0"},
      {"measurement": "dopaminergic neuron differentiation score", "setting": "[2]; library: LOPAC", "result": "inactive: 0"}
    ]},
    {"smiles": "Cl.N=C(N)NCCC[C@H](N)C(=O)O", "values": [
      {"measurement": "neuronal differentiation score", "setting": "[1]; library: Spectrum", "result": "inactive: 1"},
      {"measurement": "dopaminergic neuron differentiation score", "setting": "[2]; library: Spectrum", "result": "inactive: 0"}
    ]},
    {"smiles": "CN1CCN(c2cc3c(cc2F)c(=O)c(C(=O)O)cn3-c2ccc(F)cc2)CC1", "values": [
      {"measurement": "neuronal differentiation score", "setting": "[1]; library: Spectrum", "result": "inactive: 0"},
      {"measurement": "dopaminergic neuron differentiation score", "setting": "[2]; library: Spectrum", "result": "inactive: 0"}
    ]},
    {"smiles": "CC(C)c1c(C(=O)Nc2ccccc2)c(-c2ccccc2)c(-c2ccc(F)cc2)n1CC[C@@H](O)C[C@@H](O)CC(=O)O", "note": "[Atorvastatin]", "values": [
      {"measurement": "neuronal differentiation score", "setting": "[1]; library: Prestwick", "result": "inactive: 0"},
      {"measurement": "dopaminergic neuron differentiation score", "setting": "[2]; library: Prestwick", "result": "inactive: 0"}
    ]},
    {"smiles": "CN(C)CCC(c1ccc(Br)cc1)c1ccccn1", "note": "(stereo not drawn) [Brompheniramine maleate]", "values": [
      {"measurement": "neuronal differentiation score", "setting": "[1]; library: Prestwick", "result": "inactive: 0"},
      {"measurement": "dopaminergic neuron differentiation score", "setting": "[2]; library: Prestwick", "result": "inactive: 0"}
    ]},
    {"smiles": "OC(CCCN1CCCCC1)(c1ccccc1)c1ccccc1", "note": "[Diphenidol hydrochloride]", "values": [
      {"measurement": "neuronal differentiation score", "setting": "[1]; library: Prestwick", "result": "inactive: 0"},
      {"measurement": "dopaminergic neuron differentiation score", "setting": "[2]; library: Prestwick", "result": "inactive: 0"}
    ]},
    {"smiles": "Cc1cc(O)c2c(c1)C(=O)c1cc(O)cc(O)c1C2=O", "values": [
      {"measurement": "neuronal differentiation score", "setting": "[1]; library: Spectrum", "result": "inactive: 0"},
      {"measurement": "dopaminergic neuron differentiation score", "setting": "[2]; library: Spectrum", "result": "inactive: 0"}
    ]},
    {"smiles": "CC1=C(CC(=O)O)c2cc(F)ccc2/C1=C\\c1ccc(S(C)(=O)=O)cc1", "note": "[Sulindac sulfone]", "values": [
      {"measurement": "neuronal differentiation score", "setting": "[1]; library: LOPAC", "result": "inactive: 0"},
      {"measurement": "dopaminergic neuron differentiation score", "setting": "[2]; library: LOPAC", "result": "inactive: 0"}
    ]},
    {"smiles": "Cc1c(O)c(=O)ccn1C", "values": [
      {"measurement": "neuronal differentiation score", "setting": "[1]; library: Spectrum", "result": "inactive: 0"},
      {"measurement": "dopaminergic neuron differentiation score", "setting": "[2]; library: Spectrum", "result": "inactive: 0"}
    ]},
    {"smiles": "c1ccc2nc(C3=NCCN3)cnc2c1", "note": "[BU 239 hydrochloride]", "values": [
      {"measurement": "neuronal differentiation score", "setting": "[1]; library: Tocriscreen", "result": "inactive: 0"},
      {"measurement": "dopaminergic neuron differentiation score", "setting": "[2]; library: Tocriscreen", "result": "inactive: 0"}
    ]},
    {"smiles": "CCOc1nc2cccc(C(=O)OC(C)OC(=O)OC3CCCCC3)c2n1Cc1ccc(-c2ccccc2-c2nn[nH]n2)cc1", "note": "(stereo not drawn)", "values": [
      {"measurement": "neuronal differentiation score", "setting": "[1]; library: Spectrum", "result": "inactive: 0"},
      {"measurement": "dopaminergic neuron differentiation score", "setting": "[2]; library: Spectrum", "result": "inactive: 0"}
    ]},
    {"smiles": "O=C1c2c(O)cccc2C([C@@H]2O[C@H](CO)[C@@H](O)[C@H](O)[C@H]2O)c2cc(CO)cc(O)c21", "note": "(stereo partly drawn)", "values": [
      {"measurement": "neuronal differentiation score", "setting": "[1]; library: Spectrum", "result": "inactive: 0"},
      {"measurement": "dopaminergic neuron differentiation score", "setting": "[2]; library: Spectrum", "result": "inactive: 0"}
    ]},
    {"smiles": "COc1c(N2CCNC(C)C2)c(F)cc2c(=O)c(C(=O)O)cn(C3CC3)c12", "note": "(stereo not drawn)", "values": [
      {"measurement": "neuronal differentiation score", "setting": "[1]; library: Spectrum", "result": "inactive: -1"},
      {"measurement": "dopaminergic neuron differentiation score", "setting": "[2]; library: Spectrum", "result": "inactive: 0"}
    ]},
    {"smiles": "C[C@@H]1C(=O)O[C@H]2C[C@@]34[C@H]5C[C@@H](C(C)(C)C)[C@]36[C@@H](OC(=O)[C@@H]6O)O[C@@]4(C(=O)O5)[C@]21O", "values": [
      {"measurement": "neuronal differentiation score", "setting": "[1]; library: Spectrum", "result": "inactive: 0"},
      {"measurement": "dopaminergic neuron differentiation score", "setting": "[2]; library: Spectrum", "result": "inactive: 0"}
    ]}
  ]
}
